Article doi:10.1101/2025.02.21.639453
These are yes or no findings as the source states them, for the method shown. In cells and extracts the contact can be indirect. Some results given as binding are weak or reduced against the parent protein; the word gives no strength. For some assays here: Where a sequence is shown, tags or fusion partners need not be part of it.

Sequences of proteins named here, by UniProt entry; tags and fusion partners are left off. Residues count along the entry.
UniProt P84077: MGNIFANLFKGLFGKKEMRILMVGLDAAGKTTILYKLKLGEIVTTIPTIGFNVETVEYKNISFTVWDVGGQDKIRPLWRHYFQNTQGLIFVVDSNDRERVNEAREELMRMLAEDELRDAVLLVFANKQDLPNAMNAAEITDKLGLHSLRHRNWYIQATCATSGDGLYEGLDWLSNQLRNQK
UniProt P30530, residues 26-894: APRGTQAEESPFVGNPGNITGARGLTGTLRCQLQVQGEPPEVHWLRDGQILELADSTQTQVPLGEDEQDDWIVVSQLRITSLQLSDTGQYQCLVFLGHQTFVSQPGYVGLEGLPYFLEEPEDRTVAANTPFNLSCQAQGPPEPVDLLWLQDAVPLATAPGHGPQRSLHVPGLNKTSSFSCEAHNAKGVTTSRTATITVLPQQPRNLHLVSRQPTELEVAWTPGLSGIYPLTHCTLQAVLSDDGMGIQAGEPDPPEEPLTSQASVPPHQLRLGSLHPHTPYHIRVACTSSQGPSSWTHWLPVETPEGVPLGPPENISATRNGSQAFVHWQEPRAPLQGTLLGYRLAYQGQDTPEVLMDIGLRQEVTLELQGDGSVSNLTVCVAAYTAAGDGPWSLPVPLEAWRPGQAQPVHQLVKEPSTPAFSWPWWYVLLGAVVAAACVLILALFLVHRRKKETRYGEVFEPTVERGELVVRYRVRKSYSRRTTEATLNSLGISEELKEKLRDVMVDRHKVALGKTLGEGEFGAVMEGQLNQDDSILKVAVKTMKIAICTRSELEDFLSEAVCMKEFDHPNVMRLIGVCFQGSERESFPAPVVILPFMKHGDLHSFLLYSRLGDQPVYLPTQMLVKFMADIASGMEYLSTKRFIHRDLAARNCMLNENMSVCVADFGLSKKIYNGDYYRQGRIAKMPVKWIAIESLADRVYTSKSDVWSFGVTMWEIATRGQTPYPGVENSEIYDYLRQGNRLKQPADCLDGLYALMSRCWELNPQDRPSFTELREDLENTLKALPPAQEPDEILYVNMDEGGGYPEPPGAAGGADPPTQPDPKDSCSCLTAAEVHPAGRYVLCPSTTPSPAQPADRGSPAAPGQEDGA

Legend:
GST-GGA3 = molecular target: T1, GST-GGA3 (UniProt Q9NZ52); test: pull-down
T1 sequence: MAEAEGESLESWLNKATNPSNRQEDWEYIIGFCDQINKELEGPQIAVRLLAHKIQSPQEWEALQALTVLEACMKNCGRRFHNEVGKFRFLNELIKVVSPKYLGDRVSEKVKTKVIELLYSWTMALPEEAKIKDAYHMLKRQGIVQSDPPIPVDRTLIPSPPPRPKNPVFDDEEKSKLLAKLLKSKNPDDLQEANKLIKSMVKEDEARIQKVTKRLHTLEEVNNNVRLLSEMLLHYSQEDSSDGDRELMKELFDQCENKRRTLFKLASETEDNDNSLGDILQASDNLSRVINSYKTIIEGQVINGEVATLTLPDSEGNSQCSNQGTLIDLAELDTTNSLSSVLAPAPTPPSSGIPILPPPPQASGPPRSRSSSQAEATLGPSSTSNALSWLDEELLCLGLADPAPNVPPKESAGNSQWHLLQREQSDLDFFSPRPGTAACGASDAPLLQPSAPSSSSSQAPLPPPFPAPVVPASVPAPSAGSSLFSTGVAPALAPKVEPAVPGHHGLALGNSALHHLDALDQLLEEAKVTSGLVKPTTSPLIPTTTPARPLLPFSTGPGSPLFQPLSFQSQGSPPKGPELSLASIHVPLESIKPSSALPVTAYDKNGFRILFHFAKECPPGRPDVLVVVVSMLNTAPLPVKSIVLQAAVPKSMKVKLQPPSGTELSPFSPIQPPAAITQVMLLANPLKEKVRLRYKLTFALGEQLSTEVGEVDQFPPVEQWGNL

[1] = molecular target: Active Arf1 (human (endogenous in MDAMB231 and A549)) (UniProt P84077); test: pull-down

| Substance | binding (GST-GGA3) | binding [1] |
| --- | --- | --- |
| Active Arf1 (from UniProt P84077 1-181) | binds | – |
| Receptor tyrosine kinase AXL (from UniProt P30530 26-894) | – | binds |
